For two molecules, binding results are on record in PMC8961175.

Chains of the proteins cited; added tags and fusions are not shown.
UniProt P49841: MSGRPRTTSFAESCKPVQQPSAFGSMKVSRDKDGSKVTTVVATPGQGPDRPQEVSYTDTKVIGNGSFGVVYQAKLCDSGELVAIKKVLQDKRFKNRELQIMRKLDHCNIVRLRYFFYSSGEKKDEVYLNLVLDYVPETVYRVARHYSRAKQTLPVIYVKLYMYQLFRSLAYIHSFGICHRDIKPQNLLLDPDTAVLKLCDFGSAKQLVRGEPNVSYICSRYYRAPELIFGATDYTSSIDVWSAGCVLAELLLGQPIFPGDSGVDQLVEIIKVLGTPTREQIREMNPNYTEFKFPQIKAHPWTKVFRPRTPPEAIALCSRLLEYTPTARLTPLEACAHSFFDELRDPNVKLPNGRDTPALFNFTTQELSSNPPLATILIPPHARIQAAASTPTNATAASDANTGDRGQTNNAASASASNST

The target in assay [1] is T1, Flag-eEF2K (eukaryotic elongation factor 2 kinase) (UniProt O00418).
T1 sequence: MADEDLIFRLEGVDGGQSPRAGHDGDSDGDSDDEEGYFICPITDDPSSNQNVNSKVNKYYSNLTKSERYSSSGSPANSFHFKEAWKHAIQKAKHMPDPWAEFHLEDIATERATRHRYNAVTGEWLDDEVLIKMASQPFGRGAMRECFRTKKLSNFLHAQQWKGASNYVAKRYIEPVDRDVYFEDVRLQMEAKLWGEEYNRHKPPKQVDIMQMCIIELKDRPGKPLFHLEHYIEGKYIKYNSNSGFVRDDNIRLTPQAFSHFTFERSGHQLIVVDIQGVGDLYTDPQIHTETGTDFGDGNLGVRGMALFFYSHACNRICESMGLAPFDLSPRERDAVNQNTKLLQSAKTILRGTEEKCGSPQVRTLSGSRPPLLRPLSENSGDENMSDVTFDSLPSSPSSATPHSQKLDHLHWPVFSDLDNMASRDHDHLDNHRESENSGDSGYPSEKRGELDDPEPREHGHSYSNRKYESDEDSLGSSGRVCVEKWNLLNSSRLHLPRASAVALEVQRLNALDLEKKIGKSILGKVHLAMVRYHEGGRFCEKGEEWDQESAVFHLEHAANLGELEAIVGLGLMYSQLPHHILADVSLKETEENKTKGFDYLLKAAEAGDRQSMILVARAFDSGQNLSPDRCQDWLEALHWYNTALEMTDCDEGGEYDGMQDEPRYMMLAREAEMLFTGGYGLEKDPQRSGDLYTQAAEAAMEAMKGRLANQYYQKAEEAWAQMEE
Description: affinity purification with mass spectrometry; proteins immunoprecipitated by anti-Flag antibody, separated by PAGE, silver stained and analysed by mass spectrometry; cells not given.

Assay [2] concerns the target T1, Flag-eEF2K (eukaryotic elongation factor 2 kinase). Described as above. This is another data set of the same source.

Like-named read-outs stand apart in the source and are kept apart here. These are yes or no findings as the source states them, for the method shown. Binding seen in cells or lysates may run through a third protein. These calls come from enrichment with a bait or labelling near it, and not all partners need be listed. Where a sequence is shown, tags or fusion partners need not be part of it.

“GSK3β found in the IP-MS of eEF2K (from UniProt P49841 1-420) (enzyme)”: in assay [1], the binding entry was “binds”.

B1: Homer1 (protein, UniProt Q86YM7 1-354)
chain: MGEQPIFSTRAHVFQIDPNTKKNWVPTSKHAVTVSYFYDSTRNVYRIISLDGSKAIINSTITPNMTFTKTSQKFGQWADSRANTVYGLGFSSEHHLSKFAEKFQEFKEAARLAKEKSQEKMELTSTPSQESAGGDLQSPLTPESINGTDDERTPDVTQNSEPRAEPTQNALPFSHSSAISKHWEAELATLKGNNAKLTAALLESTANVKQWKQQLAAYQEEAERLHKRVTELECVSSQANAVHTHKTELNQTIQELEETLKLKEEEIERLKQEIDNARELQEQRDSLTQKLQEVEIRNKDLEGQLSDLEQRLEKSQNEQEAFRNNLKTLLEILDGKIFELTELRDNLAKLLECS
On to B1, for which the binding entry in assay [2] was “binds”.
